Values joined by “and” are separate entries in the source; they are usually repeats but may differ in a detail not shown here. Equal values may be shown once. Out of some 300,000 compounds screened, about 5,400 (1.8%) were called active. This list was built around the results that the source calls inconclusive (neither active nor inactive); the mix of calls is not that of the screen. The call rests on the fitted dose curve; tested in HEK293 cells. Potencies of inconclusive entries are doubtful fits and often do not repeat.
assay: qHTS for inhibitors of binding or entry into cells for Marburg Virus; settings: Marburg virus pseudotyped entry inhibition, cell reporter; activity change, negative = inhibition: at 37.8 µM (top of the series) unless noted
On the % scale 0 is the no-effect control and ±100 the full control effect; potency means the concentration at half of the fitted maximal effect.

Question: Which Potency does the source give for `Cc1cc(N2CCN(C)CC2)nc2ccc(NC(=S)NCCCN3CCc4ccccc4C3)cc12` here?
Answer: active: 3.98 µM

Question: Which “activity change, negative = inhibition” value does the source give for `O=C1CCC2=C(O1)C(O)=C(O)CC2` here?
Answer: inactive: 8.02%

Question: Which Potency does the source give for `CCOc1ccc(NS(=O)(=O)c2cccc(C(=O)N3CCN(C/C=C/c4ccccc4)CC3)c2)cc1` here?
Answer: inconclusive: 28.2 µM [inhibitor, single point]

Question: Which Potency does the source give for `O=[N+]([O-])c1ccc(O)c(Nc2ncnc3ccc(Br)cc23)c1` here?
Answer: inconclusive: 31.6 µM [inhibitor, single point]

Question: Which “activity change, negative = inhibition” value does the source give for `Cc1ccc(OC(C)C(=O)Nc2ccc(S(=O)(=O)N3CCOCC3)cc2)cc1` (stereo unspecified) here?
Answer: inactive: -19.5%

Question: For `COc1ccc(CNC(=O)Nc2ccc3c(c2)N(C)C(=O)c2ccccc2S3)cc1OC`, which “activity change, negative = inhibition” value is on record?
Answer: inactive: 0.562% [at 46.1 µM]

Question: With `O=C(Nc1cccnc1)c1cc(-c2ccccc2)on1` as the compound, how does the “activity change, negative = inhibition” value read?
Answer: inactive: -12%

Question: For `O=C(O)c1ccc(N/N=C/c2ccc3ncccc3c2)cc1`, which Potency is on record?
Answer: inconclusive: 1.41 µM [inhibitor, full curve, poor fit]

Question: For `O=C(NCc1ccccc1)[C@@H]1C[C@H]1[C@@H](NP(=O)(c1ccccc1)c1ccccc1)c1ccccc1`, which Potency is on record?
Answer: inconclusive: 20.6 µM [inhibitor, single point]

Question: With `Cn1c(SCC(=O)Nc2sccc2C(N)=O)nc2ccccc2c1=O` as the compound, how does the Potency read?
Answer: inconclusive: 4.47 µM [inhibitor, single point]

Question: For `CCS(=O)(=O)c1ccc(O)c(NC(=O)Nc2ccc(C(C)(C)C)cc2)c1`, which Potency is on record?
Answer: inconclusive: 35.5 µM [inhibitor, single point]

Question: For `CCN(CC)CCNC(=O)c1ccc2c(=O)n(CCc3ccccc3)c(=O)[nH]c2c1`, which Potency is on record?
Answer: inconclusive: 29.1 µM [inhibitor, single point]

Question: Which “activity change, negative = inhibition” value does the source give for `Cc1cc(C)c(C)c(S(=O)(=O)N[C@@H](C)C(=O)OCC(=O)NC2CCCC(C)C2C)c1C` (stereo partly specified) here?
Answer: inactive: 6.78%

Question: With `CCOC(=O)c1cn(C2CC2)c2c(F)c(F)c(F)cc2c1=O` as the compound, how does the Potency read?
Answer: inconclusive: 35.5 µM [activator, single point]

Question: Which “activity change, negative = inhibition” value does the source give for `Cc1cccc(C(=O)Nc2cccc(S(=O)(=O)NCc3ccco3)c2)c1` here?
Answer: inactive: 10.9%

Question: With `C=C(C)CSc1nc2sc3c(c2c(=O)n1-c1ccc(C)cc1)CCN(C)C3` as the compound, how does the Potency read?
Answer: inconclusive: 11.2 µM [inhibitor, single point]

Question: With `CCCCCCCC(=O)N/N=C/c1ccc(Br)cc1` as the compound, how does the Potency read?
Answer: inconclusive: 29.1 µM [inhibitor, single point]

Question: With `O=C(NCc1ccncc1)C1CCN(S(=O)(=O)c2cc(Cl)ccc2Cl)CC1` as the compound, how does the “activity change, negative = inhibition” value read?
Answer: inactive: -8.45% [at 46.1 µM]

Question: Which “activity change, negative = inhibition” value does the source give for `COCc1nn2c(N)c(C#N)cnc2c1-c1ccccc1` here?
Answer: inactive: -7.18%

Question: With `Cc1cc2cc(C)c3nnc(SCC(=O)NCc4ccco4)n3c2cc1C` as the compound, how does the Potency read?
Answer: inconclusive: 32.6 µM [inhibitor, single point]

Question: With `COc1cccc(CC(=O)N2CCN(S(=O)(=O)c3ccc(Br)cc3)CC2)c1` as the compound, how does the Potency read?
Answer: inconclusive: 35.5 µM [inhibitor, single point]

Question: Which Potency does the source give for `COc1ccccc1N/C(N)=N/c1nc(CSc2ccc(C)cc2)cc(=O)[nH]1` here?
Answer: inconclusive: 17.8 µM [inhibitor, partial curve, poor fit]

Question: With `O=[N+]([O-])c1ccc(N=Nc2ccc(O)cc2O)cc1` as the compound, how does the Potency read?
Answer: inconclusive: 22.4 µM [inhibitor, partial curve, poor fit]

Question: With `Cc1cccc(NC(=O)COc2ccc(-c3nn(C)c(=O)c4ccccc34)cc2)c1` as the compound, how does the Potency read?
Answer: inconclusive: 17.8 µM [inhibitor, single point] and inconclusive: 1 µM [inhibitor, full curve, poor fit]

Question: For `O=C(CCNC(=O)Cn1ccc2ccccc2c1=O)NCc1ccc(F)cc1Cl`, which “activity change, negative = inhibition” value is on record?
Answer: inactive: 4.05% [at 46.1 µM]

Question: Which “activity change, negative = inhibition” value does the source give for `CC(=O)N1CCn2c3ccc(C)cc3c3cccc1c32` here?
Answer: inactive: 1.61%

Question: Which “activity change, negative = inhibition” value does the source give for `Cc1nc2ccc(S(=O)(=O)Nc3cccc(-c4nc5cccnc5s4)c3)cc2s1` here?
Answer: inactive: -3.88%

Question: For `COc1cccc(NC(=O)CN(C)C(C)C(=O)NC(C)c2ccc(Cl)cc2Cl)c1` (stereo unspecified), which “activity change, negative = inhibition” value is on record?
Answer: inactive: 1.11%

Question: For `CNC(=S)N1CCc2ccccc2C1`, which Potency is on record?
Answer: inconclusive: 0.1 µM [activator, full curve, poor fit]

Question: For `COCC(=O)NC1CCN(C(=O)Nc2ccc(Br)cc2)CC1`, which Potency is on record?
Answer: inconclusive: 29.1 µM [activator, single point]

Question: With `Nc1nc(=S)[nH]c2c1C1(CCCCC1)Cc1ccccc1-2` as the compound, how does the Potency read?
Answer: inconclusive: 35.5 µM [activator, single point]

Question: With `COc1ccccc1CNC(=O)c1ccc2c(=O)n(CCCN3CCCC3=O)c(=S)[nH]c2c1` as the compound, how does the “activity change, negative = inhibition” value read?
Answer: inactive: -7.77% [at 46.1 µM]

Question: Which Potency does the source give for `CCCCn1c(Cc2ccccc2)nnc1SCC(=O)Nc1cc(C)on1` here?
Answer: inconclusive: 6.31 µM [inhibitor, full curve, poor fit]

Question: With `CCC1CCCCN1C(=O)CSc1nnc(-c2ccco2)o1` (stereo unspecified) as the compound, how does the “activity change, negative = inhibition” value read?
Answer: inactive: -2.07%

Question: With `O=c1[nH]c(/C(Cl)=C/c2c(F)cccc2Cl)nc2cc(Cl)ccc12` as the compound, how does the “activity change, negative = inhibition” value read?
Answer: inactive: -7.67%

Question: With `CN(c1ccc(OC(=O)CN2C(=O)NC3(CCCC3)C2=O)cc1)S(=O)(=O)c1ccccc1` as the compound, how does the “activity change, negative = inhibition” value read?
Answer: inactive: 18.3%

Question: Which Potency does the source give for `CCOc1ccc(CCNC(=O)c2cc([N+](=O)[O-])ccc2N2CCOCC2)cc1OCC` here?
Answer: inconclusive: 12.6 µM [inhibitor, partial curve, poor fit]

Question: Which Potency does the source give for `CN(C)S(=O)(=O)c1ccc(N/C=C(\[N+](=O)[O-])S(=O)(=O)c2ccccc2)cc1` here?
Answer: inconclusive: 1.26 µM [inhibitor, single point]

Question: For `O=C(NCCc1ccccc1)c1nn(-c2ccc(F)cc2)nc1CO`, which “activity change, negative = inhibition” value is on record?
Answer: inactive: 10.2% [at 46.1 µM]

Question: With `O=C(CNC(=S)NC(=O)c1ccc(Br)o1)c1ccccc1` as the compound, how does the Potency read?
Answer: inconclusive: 35.5 µM [inhibitor, single point]

Question: Which “activity change, negative = inhibition” value does the source give for `OCc1nc2ccccc2n1CCCOc1ccc(Br)cc1` here?
Answer: inactive: -12.8%

Question: For `COc1cccc(Cn2c(NCc3cccnc3)nc3c2c(=O)n(C)c(=O)n3C)c1`, which Potency is on record?
Answer: inconclusive: 10 µM [inhibitor, partial curve, poor fit]

Question: For `NC(=O)c1ccc(C(F)(F)F)n(Cc2c(Cl)cccc2Cl)c1=O`, which Potency is on record?
Answer: inconclusive: 0.231 µM [inhibitor, partial curve, poor fit]

Question: With `CCc1ccc(S(=O)(=O)c2cn(Cc3ccccc3F)c3cc(OC)c(OC)cc3c2=O)cc1` as the compound, how does the “activity change, negative = inhibition” value read?
Answer: inactive: -17% [at 46.1 µM]

Question: With `O=C(NCCCN1CCOCC1)C(=O)N/N=C/c1ccccc1O` as the compound, how does the “activity change, negative = inhibition” value read?
Answer: inactive: 6.74%

Question: With `CCOC(=O)c1cnc2c(ccc3ccccc32)c1NCCCN(C)C` as the compound, how does the Potency read?
Answer: inconclusive: 10 µM [inhibitor, partial curve, poor fit]

Source: PubChem BioAssay AID540276 (National Center for Advancing Translational Sciences (NCATS), 2011)
